Reference: PubChem BioAssay AID1671190 (National Center for Advancing Translational Sciences (NCATS), 2021)
Values joined by “and” are separate entries in the source; they are usually repeats but may differ in a detail not shown here. Equal values may be shown once. Out of some 580,000 compounds screened, about 6,100 (1.1%) were called active. This list was built around the results that the source calls inconclusive (neither active nor inactive); the mix of calls is not that of the screen. The call rests on the fitted dose curve; in most records, active means well fitted inhibition curve with a large enough effect; inconclusive means small, poorly fitted or top-dose-only effect, or another doubt; inactive means no such curve, though single readings can be large or run the other way. Where the call is inconclusive, the potency comes from a doubtful curve fit.
On the % scale 0 is the no-effect control and ±100 the full control effect; potency means the concentration at half of the fitted maximal effect.

Chains of the proteins cited; added tags and fusions are not shown. Lines headed by an entry give the natural chain unless they say otherwise; changes in a name come on top.
UniProt P18054: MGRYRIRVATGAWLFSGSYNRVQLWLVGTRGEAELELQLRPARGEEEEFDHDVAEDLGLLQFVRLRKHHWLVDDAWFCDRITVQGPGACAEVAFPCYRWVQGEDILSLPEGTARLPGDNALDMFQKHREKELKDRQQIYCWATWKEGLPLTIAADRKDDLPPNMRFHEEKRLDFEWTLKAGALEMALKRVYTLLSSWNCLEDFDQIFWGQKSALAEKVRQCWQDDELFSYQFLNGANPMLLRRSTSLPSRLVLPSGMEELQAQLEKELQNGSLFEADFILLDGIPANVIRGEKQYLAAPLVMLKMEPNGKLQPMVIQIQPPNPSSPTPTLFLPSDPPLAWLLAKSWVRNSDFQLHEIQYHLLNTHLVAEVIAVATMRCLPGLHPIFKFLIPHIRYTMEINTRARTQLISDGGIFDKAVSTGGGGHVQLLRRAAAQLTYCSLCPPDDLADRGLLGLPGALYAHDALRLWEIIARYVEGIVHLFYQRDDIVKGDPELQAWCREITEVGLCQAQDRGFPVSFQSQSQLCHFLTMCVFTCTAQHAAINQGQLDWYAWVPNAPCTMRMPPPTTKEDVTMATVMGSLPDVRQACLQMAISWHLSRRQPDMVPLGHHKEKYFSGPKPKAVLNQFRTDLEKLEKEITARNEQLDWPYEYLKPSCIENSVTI

These compounds were tested against Polyunsaturated fatty acid lipoxygenase ALOX12 (Homo sapiens) (UniProt P18054) (assay: Primary qHTS assay for inhibitors of human arachidonate 12S-lipoxygenase (ALOX12): Round 2). Details: purified 12hLO, xylenol orange hydroperoxide absorbance; activity change, negative = inhibition: at 108 µM (top of the series) unless noted.
Procedure, shortened: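 Hydroperoxide product was detected by ferrous iron/xylenol orange as the 573 to 405 nm absorbance ratio. Arachidonic acid at 40 uM (final) was turned over for 30 min at room temperature by 150 nM human 12hLO, pH 7.0 Hepes buffer, after 15 min compound preincubation.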
`COc1ccc(/C=C\c2onc(C)c2S(=O)(=O)N2CCC(C(=O)Nc3ccccc3OC)CC2)cc1` was tested, and the “activity change, negative = inhibition” value was inactive: -21.9%.
For `CCCCCCc1ccc(/C(C)=C/C(=O)O)cc1`, the “activity change, negative = inhibition” value was inactive: 26.5%.
With `CCn1nc(C(=O)OC2CCOC2=O)c2ccccc2c1=O` (stereo unspecified) the Potency was inconclusive: 44.7 µM [inhibitor, partial curve, poor fit].
With `Cc1ccc(O)c(C(=O)c2cc(C#N)c(=O)n(-c3ccccc3C(F)(F)F)c2)c1` the “activity change, negative = inhibition” value was inactive: -13.3%.
In the case of `CC(C)NC(=O)C[C@@H]1C[C@H]2O[C@H](CNC(=O)NC(C)C)[C@@H](O)[C@H]2O1`, the “activity change, negative = inhibition” value was inactive: 5.46% [at 176 µM].
`CCCCCCCNCCCCCCC` was tested, and the Potency was inconclusive: 100 µM [inhibitor, single point].
In the case of `COC(=O)c1cc(OC)c(OC)cc1NC(=O)CN1C(=O)c2ccccc2C1=O`, the “activity change, negative = inhibition” value was inactive: -9.48%.
For `O=C(COC(=O)COc1ccccc1)NCc1ccco1`, the Potency was inconclusive: 50.1 µM [inhibitor, partial curve, poor fit].
In the case of `S=c1nc[nH]c2c1ncn2-c1ccc(Cl)cc1`, the Potency was inconclusive: 20 µM [inhibitor, partial curve, poor fit].
`COc1ccc(OC)c(NC(=O)CSc2c3c(nc4ccccc24)CCCC3)c1` was tested, and the Potency was inconclusive: 31.6 µM [inhibitor, single point].
For `C[C@@H]1CCCCO[C@H](CN(C)S(=O)(=O)c2cn(C)cn2)[C@@H](C)CN([C@H](C)CO)C(=O)c2cc(NC(=O)c3ccncc3)ccc2O1`, the Potency was inconclusive: 44.7 µM [inhibitor, partial curve, poor fit].
`Nc1nncn1C(=O)CCCOc1ccc(Cl)cc1Cl` was tested, and the “activity change, negative = inhibition” value was inactive: 3.59%.
For `N#Cc1ccccc1NC(=S)NC(=O)c1cccnc1`, the Potency was inconclusive: 14.1 µM [inhibitor, full curve, poor fit].
With `O=[N+]([O-])c1ccc(Sc2n[nH]c(-c3ccncc3)n2)nc1` the Potency was inconclusive: 17.8 µM [inhibitor, partial curve, poor fit].
In the case of `CCOC(=O)C(=NC1CCS(=O)(=O)C1)NNc1cc(Cl)ccc1Cl` (stereo unspecified), the Potency was inconclusive: 50.1 µM [inhibitor, partial curve, poor fit].
With `O=C(NCc1nnc2n1C(C(=O)O)CC2)c1cccc(Cl)c1` (stereo unspecified) the Potency was inconclusive: 7.94 µM [inhibitor, full curve, poor fit].
`COc1ccccc1NC(=O)c1ccccc1-c1ccccc1C(=O)O` was tested, and the “activity change, negative = inhibition” value was inactive: 3.88%.
In the case of `CN(C(=O)Cn1c(=O)n(C)c(=O)c2sccc21)c1ccccc1`, the Potency was inconclusive: 35.5 µM [inhibitor, partial curve, poor fit].
`CN1CC(=O)N(C2CCNC2)Cc2c1ncnc2N1CCC(N2CCOCC2)CC1` (stereo unspecified) was tested, and the Potency was inconclusive: 4.03 µM [inhibitor, single point].
With `O=[N+]([O-])c1ccccc1OCCOCCOc1cccc2cccnc12` the Potency was inconclusive: 2.82 µM [inhibitor, full curve, poor fit].
With `CC1CC(C(F)F)n2nc(C(=O)O)cc2N1` (stereo unspecified) the Potency was inconclusive: 4.47 µM [inhibitor, full curve].
In the case of `COc1cccc(C=NNC(=O)c2ccncc2)c1O`, the “activity change, negative = inhibition” value was inactive: 6.55%.
For `Cc1ccc(C(=O)Nc2ccccc2C(C)(C)C)cc1F`, the “activity change, negative = inhibition” value was inactive: -6.24%.
For `CCC(=O)Oc1ccc2oc(-c3ccc(OC)cc3)cc(=O)c2c1`, the “activity change, negative = inhibition” value was inactive: 36.7%.
With `O=C(N/N=C/C=C/c1ccccc1)c1cccnc1` the “activity change, negative = inhibition” value was inactive: 0%.
With `CC(C)c1ccc(-c2csc3ncnc(N4CCN(C)CC4)c23)cc1` the Potency was inconclusive: 3.16 µM [inhibitor, full curve, poor fit].
`COc1ccc(Cl)cc1NC(=O)Nc1ccc2c(c1)oc(=O)n2C` was tested, and the Potency was inconclusive: 126 µM [inhibitor, single point].
For `C=CCN1C(=O)CN=C1Nc1cc(C)ccc1C`, the Potency was inconclusive: 2.51 µM [inhibitor, full curve, poor fit].
For `COc1ccc(OCCN(C)C(=O)c2cn(C)c3ccccc23)cc1`, the “activity change, negative = inhibition” value was inactive: 18.4%.
With `C=C(C)COc1ccc(-c2[nH]ncc2-c2ccc(Br)cc2)c(O)c1` the Potency was inconclusive: 89.1 µM [inhibitor, partial curve, poor fit].
In the case of `O=C(CC1CC1)N1CC(=O)N2[C@@H](CO)[C@@H](c3ccc(Br)cc3)[C@@H]2C1`, the Potency was inconclusive: 50.1 µM [inhibitor, partial curve, poor fit].
`Cc1cccc(CCNC(=O)c2noc(-c3ccc4c(c3)OCO4)n2)c1` was tested, and the “activity change, negative = inhibition” value was inactive: -1.31%.
`CC[C@@H](C)[C@H](NC(=O)c1sc(-c2ccccc2F)nc1C)C(=O)O` was tested, and the Potency was inconclusive: 44.7 µM [inhibitor, partial curve, poor fit].
With `Cc1cc(O)c(/C=N/c2ccccn2)c(=O)o1` the Potency was inconclusive: 3.55 µM [inhibitor, full curve].
`O=C(c1ccc(-c2ccccc2)c(F)c1)C1CCCN(CCCn2cccn2)C1` (stereo unspecified) was tested, and the “activity change, negative = inhibition” value was inactive: 10.4%.
In the case of `O=C(CCN1C(=O)c2ccccc2S1(=O)=O)Nc1ccccc1F`, the “activity change, negative = inhibition” value was inactive: 6.67%.
In the case of `Cc1cc(C)cc(NC(=O)Cn2c(=O)oc3cc(S(=O)(=O)N4CCCC4)ccc32)c1`, the “activity change, negative = inhibition” value was inactive: -15%.
For `CC(C)C(=O)Nc1ccc(Cl)cn1`, the “activity change, negative = inhibition” value was inactive: -34.5%.
`CCCC12CN3CC(CCC)(CN(C1)C3c1c[nH]c3ccccc13)C2=O` (stereo unspecified) was tested, and the Potency was inconclusive: 50.1 µM [inhibitor, full curve, poor fit].
In the case of `Cc1ccc(-c2nnc(SCC(=O)N3CCc4ccccc43)o2)cc1`, the “activity change, negative = inhibition” value was inactive: 5.29%.
In the case of `Oc1c(I)cc(Cl)c2cccnc12`, the Potency was active: 2.03 µM and active: 11.2 µM.
`COC(=O)C1=C(C)OC(N)=C(C#N)C1c1ccc(C(=O)OC)cc1` (stereo unspecified) was tested, and the Potency was inconclusive: 44.7 µM [inhibitor, partial curve, poor fit].
`CCc1ccc(-n2c(SCC(=O)c3ccc4c(c3)NC(=O)CO4)nc3ccccc3c2=O)cc1` was tested, and the “activity change, negative = inhibition” value was inactive: 0.296%.
`CC(=O)Nc1ccc(S(=O)(=O)N2Cc3ccccc3OC3(CCN(C(=O)NC(C)C)CC3)C2)cc1` was tested, and the Potency was inconclusive: 100 µM [inhibitor, partial curve, poor fit].
`CCCn1c(O)c(N=NC(=O)c2ccco2)c2ccccc21` was tested, and the “activity change, negative = inhibition” value was inactive: 3.8%.
With `Cc1ccc(C(=O)C2=C(O)C(=O)N(Cc3cccnc3)C2c2ccc(OC(C)C)cc2)o1` (stereo unspecified) the Potency was inconclusive: 2.82 µM [inhibitor, full curve, poor fit].
